Measured values from patent US20130004519A1.
These are yes or no findings as the source states them, for the method shown. For some of these results: Binding seen in cells or lysates may run through a third protein. Some binding calls cover weakened binding; strength is not graded here. For some of these results: Where a sequence is shown, tags or fusion partners need not be part of it.

Chains of the proteins cited; added tags and fusions are not shown. Residues count along the entry.
UniProt P24821, residues 23-2201: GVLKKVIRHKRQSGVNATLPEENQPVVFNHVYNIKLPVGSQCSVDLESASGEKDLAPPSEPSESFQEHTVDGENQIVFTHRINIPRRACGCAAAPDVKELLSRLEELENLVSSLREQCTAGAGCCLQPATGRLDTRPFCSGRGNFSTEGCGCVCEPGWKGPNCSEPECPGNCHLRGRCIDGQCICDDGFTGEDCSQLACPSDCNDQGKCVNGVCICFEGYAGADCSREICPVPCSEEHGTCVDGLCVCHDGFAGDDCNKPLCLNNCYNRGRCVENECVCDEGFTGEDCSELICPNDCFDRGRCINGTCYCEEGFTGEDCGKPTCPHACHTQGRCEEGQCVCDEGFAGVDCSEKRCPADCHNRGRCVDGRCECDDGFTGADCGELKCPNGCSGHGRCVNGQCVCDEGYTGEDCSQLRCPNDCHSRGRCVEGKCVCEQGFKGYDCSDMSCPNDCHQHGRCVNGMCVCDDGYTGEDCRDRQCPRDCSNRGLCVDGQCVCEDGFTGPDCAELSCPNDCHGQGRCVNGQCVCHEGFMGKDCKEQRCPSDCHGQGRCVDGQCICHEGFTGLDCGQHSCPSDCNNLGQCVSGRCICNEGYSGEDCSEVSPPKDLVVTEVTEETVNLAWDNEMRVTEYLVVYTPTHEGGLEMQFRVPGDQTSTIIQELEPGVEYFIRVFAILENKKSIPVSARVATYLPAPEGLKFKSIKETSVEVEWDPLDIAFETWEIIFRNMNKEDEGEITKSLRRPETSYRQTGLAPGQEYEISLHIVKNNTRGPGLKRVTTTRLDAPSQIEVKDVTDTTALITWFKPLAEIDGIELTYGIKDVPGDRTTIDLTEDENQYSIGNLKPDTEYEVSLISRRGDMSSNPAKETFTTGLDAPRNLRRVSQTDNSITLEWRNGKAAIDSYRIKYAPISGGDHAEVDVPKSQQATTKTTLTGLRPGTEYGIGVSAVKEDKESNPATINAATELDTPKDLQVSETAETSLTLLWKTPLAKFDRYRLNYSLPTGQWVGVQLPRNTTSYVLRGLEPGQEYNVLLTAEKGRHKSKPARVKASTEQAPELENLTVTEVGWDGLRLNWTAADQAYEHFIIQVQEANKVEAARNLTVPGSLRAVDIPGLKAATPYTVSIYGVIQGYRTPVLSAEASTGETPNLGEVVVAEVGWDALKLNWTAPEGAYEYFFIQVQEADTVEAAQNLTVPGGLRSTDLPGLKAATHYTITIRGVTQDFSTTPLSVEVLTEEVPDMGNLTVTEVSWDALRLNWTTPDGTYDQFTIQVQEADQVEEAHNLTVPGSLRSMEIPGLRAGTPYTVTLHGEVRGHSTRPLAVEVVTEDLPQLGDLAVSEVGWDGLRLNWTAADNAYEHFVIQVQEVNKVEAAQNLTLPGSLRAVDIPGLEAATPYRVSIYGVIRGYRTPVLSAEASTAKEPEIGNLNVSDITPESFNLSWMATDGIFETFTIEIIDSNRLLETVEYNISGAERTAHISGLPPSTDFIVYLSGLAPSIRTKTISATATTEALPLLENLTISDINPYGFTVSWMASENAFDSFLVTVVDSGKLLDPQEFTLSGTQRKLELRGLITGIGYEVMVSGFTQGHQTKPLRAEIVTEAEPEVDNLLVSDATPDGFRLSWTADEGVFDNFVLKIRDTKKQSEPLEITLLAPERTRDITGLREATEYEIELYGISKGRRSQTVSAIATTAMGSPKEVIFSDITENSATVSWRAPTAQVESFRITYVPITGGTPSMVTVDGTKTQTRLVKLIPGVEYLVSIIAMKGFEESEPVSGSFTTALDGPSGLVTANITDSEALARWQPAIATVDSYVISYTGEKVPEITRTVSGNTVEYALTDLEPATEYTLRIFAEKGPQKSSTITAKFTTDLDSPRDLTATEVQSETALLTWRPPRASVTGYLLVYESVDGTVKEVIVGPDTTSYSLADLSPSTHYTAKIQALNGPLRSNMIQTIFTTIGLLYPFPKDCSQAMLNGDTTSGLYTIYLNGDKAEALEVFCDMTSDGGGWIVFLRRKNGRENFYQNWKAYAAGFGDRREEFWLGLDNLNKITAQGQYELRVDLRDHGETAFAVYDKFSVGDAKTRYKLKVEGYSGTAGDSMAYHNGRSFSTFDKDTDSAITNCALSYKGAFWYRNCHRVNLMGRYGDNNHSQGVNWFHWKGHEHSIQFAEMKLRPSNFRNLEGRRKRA

Key:
[1] = biological target: His-tagged human tenascin-C (human) (UniProt P24821); test: co-immunoprecipitation from medium of doubly transfected COS cells, western blot
[2] = biological target: His-tagged human tenascin-C (human) (UniProt P24821); test: co-immunoprecipitation from COS cell culture medium with the anti-myc antibody (lane labelled SMOC1), western blot probed for tenascin-C
[3] = biological target: His-tagged human tenascin-C (human) (UniProt P24821); test: summary of pull-down, co-immunoprecipitation and SPR
[4] = biological target: His-tagged human tenascin-C (human) (UniProt P24821); test: surface plasmon resonance, tenascin-C coupled to a CM5 chip, SMOC1 as soluble analyte

B1: SMOC1-myc-DDK-his (protein, human, not shown: small tags and cut ends)
chain: HRTTGPRFLISDRDPQCNLHCSRTQPKPICASDGRSYESMCEYQRAKCRDPTLGVVHRGRCKDAGQSKCRLERAQALEQAKKPQEAVFVPECGEDGSFTQVQCHTYTGYCWCVTPDGKPISGSSVQNKTPVCSGSVTDKPLSQGNSGRKDDGSKPTPTMETQPVFDGDEITAPTLWIKHLVIKDSKLNNTNIRNSEKVYSCDQERQSALEEAQQNPREGIVIPECAPGGLYKPVQCHQSTGYCWCVLVDTGRPLPGTSTRYVMPSCESDARAKTTEADDPFKDRELPGCPEGKKMEFITSLLDALTTDMVQAINSAAPTGGGRFSEPDPSHTLEERVVHWYFSQLDSNSSNDINKREMKPFKRYVKKKAKPKKCARRFTDYCDLNKDKVISLPELKGCLGVSKEGRLVHHHHHH
binding [1]: binds | binding [2]: binds

B2: human recombinant SMOC1 (soluble analyte in surface plasmon resonance) (protein, UniProt Q9H4F8 27-434, looked up, not shown: small tags and cut ends)
chain: HRTTGPRFLISDRDPQCNLHCSRTQPKPICASDGRSYESMCEYQRAKCRDPTLGVVHRGRCKDAGQSKCRLERAQALEQAKKPQEAVFVPECGEDGSFTQVQCHTYTGYCWCVTPDGKPISGSSVQNKTPVCSGSVTDKPLSQGNSGRKDDGSKPTPTMETQPVFDGDEITAPTLWIKHLVIKDSKLNNTNIRNSEKVYSCDQERQSALEEAQQNPREGIVIPECAPGGLYKPVQCHQSTGYCWCVLVDTGRPLPGTSTRYVMPSCESDARAKTTEADDPFKDRELPGCPEGKKMEFITSLLDALTTDMVQAINSAAPTGGGRFSEPDPSHTLEERVVHWYFSQLDSNSSNDINKREMKPFKRYVKKKAKPKKCARRFTDYCDLNKDKVISLPELKGCLGVSKEGRLV
binding [3]: binds | binding [4]: binds
